# Results from paper PMC10937713.
# Sequences of proteins named here, by UniProt entry; tags and fusion partners are left off. A change or cut given only in a name is not applied to a line headed by its entry.
# UniProt O14744: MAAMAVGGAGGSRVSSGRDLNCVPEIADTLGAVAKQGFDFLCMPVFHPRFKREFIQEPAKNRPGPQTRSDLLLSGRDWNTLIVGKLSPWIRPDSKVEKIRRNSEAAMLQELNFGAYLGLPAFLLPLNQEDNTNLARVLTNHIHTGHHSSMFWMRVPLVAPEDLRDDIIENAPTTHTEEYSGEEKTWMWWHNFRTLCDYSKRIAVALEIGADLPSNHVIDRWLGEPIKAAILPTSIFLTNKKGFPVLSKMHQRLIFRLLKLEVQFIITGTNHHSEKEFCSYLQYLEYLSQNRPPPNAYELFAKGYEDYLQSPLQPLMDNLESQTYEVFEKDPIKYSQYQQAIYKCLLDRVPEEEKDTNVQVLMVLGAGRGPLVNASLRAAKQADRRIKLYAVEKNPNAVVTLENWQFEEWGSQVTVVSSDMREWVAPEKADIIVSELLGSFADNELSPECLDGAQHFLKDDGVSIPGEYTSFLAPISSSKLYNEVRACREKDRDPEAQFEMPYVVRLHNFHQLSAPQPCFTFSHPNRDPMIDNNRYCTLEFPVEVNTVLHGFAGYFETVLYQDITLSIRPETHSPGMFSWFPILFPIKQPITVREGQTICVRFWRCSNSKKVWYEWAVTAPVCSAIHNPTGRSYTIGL
# UniProt P35637: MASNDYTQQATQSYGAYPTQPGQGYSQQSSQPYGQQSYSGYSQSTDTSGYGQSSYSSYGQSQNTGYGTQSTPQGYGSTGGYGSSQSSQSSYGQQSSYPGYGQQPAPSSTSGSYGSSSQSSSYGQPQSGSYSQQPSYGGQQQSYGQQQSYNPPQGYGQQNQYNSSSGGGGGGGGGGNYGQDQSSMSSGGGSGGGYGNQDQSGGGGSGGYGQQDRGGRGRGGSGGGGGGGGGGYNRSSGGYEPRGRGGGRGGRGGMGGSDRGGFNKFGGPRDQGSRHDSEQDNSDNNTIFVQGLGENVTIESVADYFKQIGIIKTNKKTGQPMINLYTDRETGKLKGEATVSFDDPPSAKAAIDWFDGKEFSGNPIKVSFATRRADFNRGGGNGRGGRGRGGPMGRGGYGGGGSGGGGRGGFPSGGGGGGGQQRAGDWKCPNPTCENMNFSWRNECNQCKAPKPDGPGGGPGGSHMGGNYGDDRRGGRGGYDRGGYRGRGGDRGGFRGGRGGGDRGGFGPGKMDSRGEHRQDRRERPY
# UniProt Q9BQA1: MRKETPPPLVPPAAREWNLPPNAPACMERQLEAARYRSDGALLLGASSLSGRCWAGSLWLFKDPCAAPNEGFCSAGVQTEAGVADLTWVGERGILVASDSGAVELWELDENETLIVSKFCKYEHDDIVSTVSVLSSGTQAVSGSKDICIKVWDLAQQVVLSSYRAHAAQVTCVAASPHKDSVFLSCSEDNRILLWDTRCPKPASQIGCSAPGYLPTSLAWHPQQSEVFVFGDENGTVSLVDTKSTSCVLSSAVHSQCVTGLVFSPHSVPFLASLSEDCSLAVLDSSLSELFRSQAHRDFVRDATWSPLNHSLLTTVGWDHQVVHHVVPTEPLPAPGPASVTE
# These are yes or no findings as the source states them, for the method shown. Binding seen in cells or lysates may run through a third protein. Some binding calls cover weakened binding; strength is not graded here.
# How the values were obtained:
# [1] = target: protein arginine methyltransferase 5 (PRMT5) (human (endogenous in MCF-7 and T47D)) (UniProt O14744); assay: co-IP; endogenous proteins; MCF-7_RBKO (and T47D_RBKO) lysates in NP-40 lysis buffer (20 mM Tris-HCl pH 7.6, 150 mM NaCl, 0.1% NP-40, 1 mM EDTA); PRMT5 or FUS antibody or control IgG overnight at 4 °C, protein-G Dyna beads, elution with 0.2 M glycine pH 2.0, immunoblot; in Fig. 4H, I cells were treated with DMSO or 200 nM pemrametostat for three days before the FUS co-IP
# [2] = target: fused in sarcoma (FUS) (human (endogenous in MCF-7 and T47D)) (UniProt P35637); assay: as above
binding [1],binding [2],Substance
binds,,fused in sarcoma (FUS) (from UniProt P35637 1-526)
,binds,MEP50 (also known as WDR77) (from UniProt Q9BQA1 1-342)
,binds,protein arginine methyltransferase 5 (PRMT5) (from UniProt O14744 1-637) (enzyme)
